Results published in the supplement of paper PMC7661543.
Differences between knockout arms are mostly noise.

System: SKBR3
Experiment: relative cell number vs DMSO control (72 h) (% of DMSO); higher = less growth inhibition (more cells)
Procedure: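 QMAP-Seq: a pool of 5 breast cancer cell lines (ZR-75-1, SKBR3, HCC-38, MDA-MB-231, BT-20), each carrying 12 doxycycline-inducible Cas9 sgRNA perturbations (11 knockouts plus non-targeting sgNT), was treated with compounds for 72 h at four 10-fold doses (10 nM-10 uM or 1 nM-1 uM range). Barcodes were amplified and sequenced, and cell number was interpolated from 293T spike-in standard curves. The result is expressed as % of the median of DMSO wells. Two biological replicates.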

CC(=O)Nc1cccc(-n2c(=O)n(C3CC3)c(=O)c3c(Nc4ccc(I)cc4F)n(C)c(=O)c(C)c32)c1 [Trametinib]
Conditions	relative cell number
sgRNA knockout: sgATF3, 10 nM	104
sgRNA knockout: sgATF3, 100 nM	89.2
sgRNA knockout: sgATF3, 1000 nM	101
sgRNA knockout: sgATF3, 10000 nM	87
sgRNA knockout: sgATF4, 10 nM	95.5
sgRNA knockout: sgATF4, 100 nM	91.6
sgRNA knockout: sgATF4, 1000 nM	87.3
sgRNA knockout: sgATF4, 10000 nM	86.1
sgRNA knockout: sgATF6, 10 nM	81.3
sgRNA knockout: sgATF6, 100 nM	73.6
sgRNA knockout: sgATF6, 1000 nM	89.6
sgRNA knockout: sgATF6, 10000 nM	91.6
sgRNA knockout: sgATG7, 10 nM	94.8
sgRNA knockout: sgATG7, 100 nM	79.7
sgRNA knockout: sgATG7, 1000 nM	82.2
sgRNA knockout: sgATG7, 10000 nM	83.1
sgRNA knockout: sgERN1, 10 nM	90.9
sgRNA knockout: sgERN1, 100 nM	67
sgRNA knockout: sgERN1, 1000 nM	88.7
sgRNA knockout: sgERN1, 10000 nM	83.3
sgRNA knockout: sgHSF1, 10 nM	106
sgRNA knockout: sgHSF1, 100 nM	78.1
sgRNA knockout: sgHSF1, 1000 nM	72.9
sgRNA knockout: sgHSF1, 10000 nM	64.1
sgRNA knockout: sgHSF2, 10 nM	90.2
sgRNA knockout: sgHSF2, 100 nM	75.3
sgRNA knockout: sgHSF2, 1000 nM	74.9
sgRNA knockout: sgHSF2, 10000 nM	97.7
sgRNA knockout: sgKEAP1, 10 nM	106
sgRNA knockout: sgKEAP1, 100 nM	87.1
sgRNA knockout: sgKEAP1, 1000 nM	86.67
sgRNA knockout: sgKEAP1, 10000 nM	78.1
sgRNA knockout: sgNFE2L2, 10 nM	124
sgRNA knockout: sgNFE2L2, 100 nM	89.3
sgRNA knockout: sgNFE2L2, 1000 nM	91.2
sgRNA knockout: sgNFE2L2, 10000 nM	68.5
sgRNA knockout: sgSLC35F2, 10 nM	90
sgRNA knockout: sgSLC35F2, 100 nM	63.4
sgRNA knockout: sgSLC35F2, 1000 nM	91.6
sgRNA knockout: sgSLC35F2, 10000 nM	77.5
sgRNA knockout: sgXBP1, 10 nM	129
sgRNA knockout: sgXBP1, 100 nM	90.9
sgRNA knockout: sgXBP1, 1000 nM	96.6
sgRNA knockout: sgXBP1, 10000 nM	65

CCOc1ccccc1-n1c(C(C)N2CCN(C(=O)COc3ccc(Cl)cc3)CC2)nc2ccccc2c1=O (stereo unspecified) [Erastin]
Conditions	relative cell number
sgRNA knockout: sgATF3, 10 nM	85.5
sgRNA knockout: sgATF3, 100 nM	106
sgRNA knockout: sgATF3, 1000 nM	109
sgRNA knockout: sgATF3, 10000 nM	79.2
sgRNA knockout: sgATF4, 10 nM	89.6
sgRNA knockout: sgATF4, 100 nM	107
sgRNA knockout: sgATF4, 1000 nM	89
sgRNA knockout: sgATF4, 10000 nM	59.7
sgRNA knockout: sgATF6, 10 nM	91.8
sgRNA knockout: sgATF6, 100 nM	103
sgRNA knockout: sgATF6, 1000 nM	84.5
sgRNA knockout: sgATF6, 10000 nM	74.2
sgRNA knockout: sgATG7, 10 nM	99.5
sgRNA knockout: sgATG7, 100 nM	82.2
sgRNA knockout: sgATG7, 1000 nM	76.2
sgRNA knockout: sgATG7, 10000 nM	71
sgRNA knockout: sgERN1, 10 nM	95.6
sgRNA knockout: sgERN1, 100 nM	97.7
sgRNA knockout: sgERN1, 1000 nM	79.2
sgRNA knockout: sgERN1, 10000 nM	78.1
sgRNA knockout: sgHSF1, 10 nM	82.2
sgRNA knockout: sgHSF1, 100 nM	87.2
sgRNA knockout: sgHSF1, 1000 nM	105
sgRNA knockout: sgHSF1, 10000 nM	54.1
sgRNA knockout: sgHSF2, 10 nM	93.4
sgRNA knockout: sgHSF2, 100 nM	89.9
sgRNA knockout: sgHSF2, 1000 nM	84.2
sgRNA knockout: sgHSF2, 10000 nM	68.82
sgRNA knockout: sgKEAP1, 10 nM	102
sgRNA knockout: sgKEAP1, 100 nM	93.3
sgRNA knockout: sgKEAP1, 1000 nM	103
sgRNA knockout: sgKEAP1, 10000 nM	64.8
sgRNA knockout: sgNFE2L2, 10 nM	94.6
sgRNA knockout: sgNFE2L2, 100 nM	98
sgRNA knockout: sgNFE2L2, 1000 nM	80.2
sgRNA knockout: sgNFE2L2, 10000 nM	71.1
sgRNA knockout: sgSLC35F2, 10 nM	93.9
sgRNA knockout: sgSLC35F2, 100 nM	80
sgRNA knockout: sgSLC35F2, 1000 nM	95.9
sgRNA knockout: sgSLC35F2, 10000 nM	66
sgRNA knockout: sgXBP1, 10 nM	96.9
sgRNA knockout: sgXBP1, 100 nM	84.6
sgRNA knockout: sgXBP1, 1000 nM	94
sgRNA knockout: sgXBP1, 10000 nM	78.4

COC(=O)Nc1nc2cc(C(=O)c3ccccc3)ccc2[nH]1 [Mebendazole]
Conditions	relative cell number
sgRNA knockout: sgATF3, 10 nM	91.8
sgRNA knockout: sgATF3, 100 nM	57.1
sgRNA knockout: sgATF3, 1000 nM	12.7
sgRNA knockout: sgATF3, 10000 nM	6.57
sgRNA knockout: sgATF4, 10 nM	99.7
sgRNA knockout: sgATF4, 100 nM	74.4
sgRNA knockout: sgATF4, 1000 nM	8.73
sgRNA knockout: sgATF4, 10000 nM	7.01
sgRNA knockout: sgATF6, 10 nM	80.6
sgRNA knockout: sgATF6, 100 nM	59.6
sgRNA knockout: sgATF6, 1000 nM	7.27
sgRNA knockout: sgATF6, 10000 nM	11.8
sgRNA knockout: sgATG7, 10 nM	114
sgRNA knockout: sgATG7, 100 nM	77.69
sgRNA knockout: sgATG7, 1000 nM	9.895
sgRNA knockout: sgATG7, 10000 nM	5.12
sgRNA knockout: sgERN1, 10 nM	92.3
sgRNA knockout: sgERN1, 100 nM	72.7
sgRNA knockout: sgERN1, 1000 nM	9.09
sgRNA knockout: sgERN1, 10000 nM	5.83
sgRNA knockout: sgHSF1, 10 nM	97.8
sgRNA knockout: sgHSF1, 100 nM	76.7
sgRNA knockout: sgHSF1, 1000 nM	10.7
sgRNA knockout: sgHSF1, 10000 nM	4.99
sgRNA knockout: sgHSF2, 10 nM	103
sgRNA knockout: sgHSF2, 100 nM	68.1
sgRNA knockout: sgHSF2, 1000 nM	12.2
sgRNA knockout: sgHSF2, 10000 nM	9.45
sgRNA knockout: sgKEAP1, 10 nM	86.16
sgRNA knockout: sgKEAP1, 100 nM	62.8
sgRNA knockout: sgKEAP1, 1000 nM	7.66
sgRNA knockout: sgKEAP1, 10000 nM	7.23
sgRNA knockout: sgNFE2L2, 10 nM	108
sgRNA knockout: sgNFE2L2, 100 nM	65.6
sgRNA knockout: sgNFE2L2, 1000 nM	6.81
sgRNA knockout: sgNFE2L2, 10000 nM	7.32
sgRNA knockout: sgSLC35F2, 10 nM	83.8
sgRNA knockout: sgSLC35F2, 100 nM	75.9
sgRNA knockout: sgSLC35F2, 1000 nM	10.1
sgRNA knockout: sgSLC35F2, 10000 nM	8.13
sgRNA knockout: sgXBP1, 10 nM	114
sgRNA knockout: sgXBP1, 100 nM	71.8
sgRNA knockout: sgXBP1, 1000 nM	7.98
sgRNA knockout: sgXBP1, 10000 nM	5.17

CC(C)[C@]12O[C@H]1[C@@H]1O[C@]13[C@]1(O[C@H]1C[C@H]1C4=C(CC[C@@]13C)C(=O)OC4)[C@@H]2O [Triptolide]
Conditions	relative cell number
sgRNA knockout: sgATF3, 1 nM	115
sgRNA knockout: sgATF3, 10 nM	60.6
sgRNA knockout: sgATF3, 100 nM	8.45
sgRNA knockout: sgATF3, 1000 nM	7.43
sgRNA knockout: sgATF4, 1 nM	104
sgRNA knockout: sgATF4, 10 nM	66.1
sgRNA knockout: sgATF4, 100 nM	9.47
sgRNA knockout: sgATF4, 1000 nM	8.87
sgRNA knockout: sgATF6, 1 nM	87.9
sgRNA knockout: sgATF6, 10 nM	62.5
sgRNA knockout: sgATF6, 100 nM	12.2
sgRNA knockout: sgATF6, 1000 nM	7.75
sgRNA knockout: sgATG7, 1 nM	99.1
sgRNA knockout: sgATG7, 10 nM	46.2
sgRNA knockout: sgATG7, 100 nM	7.65
sgRNA knockout: sgATG7, 1000 nM	8.55
sgRNA knockout: sgERN1, 1 nM	78.5
sgRNA knockout: sgERN1, 10 nM	54.2
sgRNA knockout: sgERN1, 100 nM	8.78
sgRNA knockout: sgERN1, 1000 nM	8.16
sgRNA knockout: sgHSF1, 1 nM	93.7
sgRNA knockout: sgHSF1, 10 nM	57.8
sgRNA knockout: sgHSF1, 100 nM	12.7
sgRNA knockout: sgHSF1, 1000 nM	11.2
sgRNA knockout: sgHSF2, 1 nM	85.7
sgRNA knockout: sgHSF2, 10 nM	53.4
sgRNA knockout: sgHSF2, 100 nM	9.68
sgRNA knockout: sgHSF2, 1000 nM	12.15
sgRNA knockout: sgKEAP1, 1 nM	100
sgRNA knockout: sgKEAP1, 10 nM	53
sgRNA knockout: sgKEAP1, 100 nM	7.76
sgRNA knockout: sgKEAP1, 1000 nM	8.26
sgRNA knockout: sgNFE2L2, 1 nM	90.4
sgRNA knockout: sgNFE2L2, 10 nM	59.8
sgRNA knockout: sgNFE2L2, 100 nM	12.6
sgRNA knockout: sgNFE2L2, 1000 nM	7.87
sgRNA knockout: sgSLC35F2, 1 nM	88.5
sgRNA knockout: sgSLC35F2, 10 nM	53.7
sgRNA knockout: sgSLC35F2, 100 nM	10
sgRNA knockout: sgSLC35F2, 1000 nM	5.78
sgRNA knockout: sgXBP1, 1 nM	74.5
sgRNA knockout: sgXBP1, 10 nM	50.632
sgRNA knockout: sgXBP1, 100 nM	8.49
sgRNA knockout: sgXBP1, 1000 nM	9.32
